Laboratory results published in PubChem BioAssay AID493014 (National Center for Advancing Translational Sciences (NCATS), 2011).
Among all 340,000 compounds or so, about 170 (0.05%) were called active. This list was built around the results that the source calls inconclusive (neither active nor inactive); the mix of calls is not that of the screen. The call rests on the fitted dose curve; in most records, active means well fitted inhibition curve with a large enough effect in the signal ratio, with a control signal flat (not every such curve was filed as active); inconclusive means small, poorly fitted or top-dose-only effect, or effect the other way, or a change in a side signal; inactive means flat fitted curve, though single readings scatter; the % refers to the signal ratio. A potency beside an inconclusive call is a rough fit, not a confirmed value.

assay: qHTS Assay to Find Inhibitors of Chronic Active B-Cell Receptor Signaling; settings: ABC-DLBCL IkBa-CBG/CBR reporter, luminescence ratio (green luciferase fused to IkBa over red control in TMD8 lymphoma cells), 4 h; activity change, negative = inhibition: at 46.1 µM (top of the series);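 on activity change, negative = inhibition: plate controls were basal doxycycline-induced cells for no effect and cells given 10 µM MG132 for full effect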
In short: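 Concentration-response series (up to 46 uM) were applied to TMD8 dual-reporter cells for 4 h at 37C with doxycycline. Green/red ratio, after filter-overlap correction, defined %Activity; red signal alone was normalised to basal cells and zero luminescence.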
Potency means the concentration at half of the fitted maximal effect.

SMILES | activity change, negative = inhibition | Potency
COc1cc(OC)cc(C(=O)Nc2cccc(N3CCCC3)c2)c1 | inconclusive: -5.9% | 
O=C(CSc1nnc(-c2ccncc2)n1Cc1ccco1)Nc1nc(-c2ccccc2)cs1 |  | inconclusive: 29.1 µM [rising, single point]
O=C1NNC(=O)C2C3C=CC(C4CC34)C12 (stereo not drawn) |  | inconclusive: 6.51 µM [rising, partial curve, poor fit]
CC(/C=N/NC(=O)c1cccnc1)=C\c1ccco1 | inconclusive: -6.8% | 
CCOC(=O)/C=C/C(=O)OCC(=O)NC(c1ccccc1)c1ccccc1 | inconclusive: -9.06% | 
C=CCN1C(=O)C(Cc2cccc(C)c2)SC1=Nc1ccc(C(=O)O)cc1 (stereo not drawn) | inconclusive: -0.626% | 
CCOC(=O)c1ccccc1NC(=O)Cn1c(=O)n(Cc2ccccc2)c(=O)c2c(C)c(C)sc21 | inactive | 
Cc1ccc(Nc2nnc(SC/C(O)=C(\C#N)c3nc4ccccc4[nH]3)s2)c(C)c1 |  | inconclusive: 5.8 µM [rising, full curve]
CCC(C)(C)NC(=O)C(c1ccc(C)cc1)N(Cc1ccco1)C(=O)Cn1nnc2ccccc21 (stereo not drawn) | inconclusive: 14.9% | 
NC(=O)c1ccccc1OCC(=O)NS(=O)(=O)c1ccc(Cl)cc1 | inconclusive: -1.07% | 
O=C(Nc1cccc(-c2cccc(Cl)c2)c1)C1CCN(Cc2ccccn2)CC1 | inconclusive: -9.54% | 
CCCCNC(=O)c1c[nH]c2ccc(S(=O)(=O)Nc3ccc(OCC)cc3)cc2c1=O | inconclusive: 1.68% | 
Cc1cc(NC(=O)c2cccc(Oc3ccccc3)c2)n[nH]1 | inconclusive: -26.3% | 
Cc1cc(C(=O)N/N=C/c2cccc(OC(=O)c3ccco3)c2)n[nH]1 |  | inconclusive: 31.6 µM [falling, partial curve, poor fit]
C=C1C(C(=O)Nc2ccccc2)C1C(=O)Nc1ccccc1 (stereo not drawn) | inconclusive: 5.47% | 
CCSc1nnc(NC(=O)C(CC)(C(F)(F)F)C(F)(F)F)s1 |  | inconclusive: 7.31 µM [rising, partial curve]
COc1ccc(CNc2ncnc3c2c(-c2ccccc2)cn3-c2ccccc2)cc1 | inconclusive: 12.2% | 
Nc1cc(N)nc(SCC(=O)NC2CCCCCCC2)n1 | inactive | 
Fc1cccc(Cl)c1Cn1nnc2c(-n3ccnc3)ncnc21 | inconclusive: 14.4% | 
O=C(O)c1cccc([N+](=O)[O-])c1C(=O)Nc1nc2ccccc2s1 |  | inconclusive: 22.4 µM [falling, single point]
CN1CC(=O)N(CC(=O)Nc2ccc(Cl)c(C(F)(F)F)c2)c2ccccc2C1=O | inactive | 
CC(=O)c1ccc(NC(=O)CNCc2cccs2)cc1 | inconclusive: -4.11% | 
Cc1ccc(Nc2nc(N/N=C/c3c[nH]c4ccccc34)nc(N3CCOCC3)n2)cc1 |  | inconclusive: 6.51 µM [falling, single point]
CCCc1cc(C(=O)NNC(=S)NC2CCCCC2)cs1 |  | inconclusive: 10 µM [falling, partial curve, poor fit]

Exported as tab-separated lines: 2 of the compounds above.
SMILES	activity change, negative = inhibition	Potency
CN1CC(=O)N(CC(=O)Nc2ccc(Cl)c(C(F)(F)F)c2)c2ccccc2C1=O	inactive	
CC(=O)c1ccc(NC(=O)CNCc2cccs2)cc1	inconclusive: -4.11%	

Next part.

SMILES | activity change, negative = inhibition | Potency
COc1ccc(-c2nc(CSCC(=O)N3CCC(C(N)=O)CC3)c(C)o2)cc1OC | inconclusive: 1.75% | 
Cc1nnc(SCC(=O)NCc2ccccc2F)c2nn(-c3ccc(Cl)cc3)c(C)c12 |  | inconclusive: 2.24 µM [falling, partial curve, poor fit]
Cc1cc(NC(=O)C2CCCCC2)n(-c2nc3ccccc3[nH]2)n1 |  | inconclusive: 2.06 µM [rising, full curve]
CCNc1nc2ccccc2[nH]1 | inconclusive: 4.08% | 
COC(=O)c1cc(OC)c(OC)cc1NCC(=O)Nc1ccc(C)cc1 |  | inconclusive: 2.06 µM [falling, partial curve]
O=c1c2cc(-c3ccccc3)sc2ncn1/N=C/c1ccco1 | inconclusive: 2.84% | 
CCCNC(=O)c1cc(-c2ccc(OC)cc2)on1 |  | inconclusive: 11.6 µM [falling, partial curve]
O=C1COc2ccc(C(=O)COC(=O)/C=C/c3cccc(F)c3)cc2N1 | inconclusive: -1.93% | 
COc1ccc(C(=O)NNC(=S)NC(=O)c2ccco2)cc1 |  | inconclusive: 31.6 µM [falling, single point]
COc1ccc(CCC(=O)N2CCCc3ccccc32)cc1 | inconclusive: 16.3% | 
O=C1C=CC(=O)N1c1ccc(N2CCCCC2)cc1 | inconclusive: 9.83% | 
Cc1sc2nc(C3CCCCC3)nc(SCC(=O)N3CC(=O)Nc4ccccc43)c2c1C |  | inconclusive: 2.24 µM [falling, partial curve, poor fit]
CCOC(=O)NC1(C(F)(F)F)NC(=O)N(Cc2ccco2)C1=O (stereo not drawn) | inconclusive: 3.49% | 
Cc1ccc(OCCC(=O)OCC(=O)N2CC(=O)Nc3ccccc32)cc1 | inconclusive: -0.239% | 
COc1cccc(N/C=C(\C#N)c2ccc(OCCCF)cc2)c1 |  | inconclusive: 23.1 µM [falling, single point]
CC(C)c1ccc(/C=N/Nc2ccc(C(=O)O)cc2)cc1 |  | inconclusive: 0.00651 µM [rising, full curve, poor fit]
CCOC(=O)C1CCN(C(=O)COC(=O)c2nn(C)c(=O)c3ccccc23)CC1 | inconclusive: -6.01% | 
Cc1[nH]n(-c2ccccc2)c(=O)c1-c1ccc(Cl)cc1 | inconclusive: 13.9% | 
CCOCC(=O)Nc1nc2ccc(OCC)cc2s1 |  | inconclusive: 29.1 µM [falling, single point]
CC(C)NC(=O)c1cc(-c2ccc3c(c2)OCO3)on1 |  | inconclusive: 35.5 µM [rising, single point]
Clc1ccccc1OCc1nc(-c2ccncc2)no1 | inconclusive: 15.7% | 
CC(C)(C)OC(=O)N/N=C/c1ccc(C(=O)O)cc1 |  | inconclusive: 20.6 µM [falling, partial curve, poor fit]
Cc1ccc(-c2nnc(NC(=O)c3ccco3)o2)c(C)c1 |  | inconclusive: 16.4 µM [falling, partial curve]
O=C(CN1CCC(n2nnc3cc(F)ccc32)CC1)NC1CC1 | inactive | 
